In PubChem BioAssay AID463205 (Broad Institute, 2010):
The campaign covered roughly 2,400 compounds. About 20 (0.8%) were called active.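 The calls were made as follows: active = AC50 no more than ten times the highest tested concentration, or full inhibition at every dose giving a flat fit (cut at about 30 µM in these data); inconclusive = flat fit with activity between 30% and 70%, or poor-quality invalid fit; inactive = AC50 more than ten times the top tested dose.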 The list shows a part of the results.

Assay: inhibitors of ADP-Glo detection reagents, dose response, artefact control for GSK-3a inhibitor project, biochemical, luminescence, cell-free, homogeneous (AID 463205);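 also: kinase-free counter-screen against the ADP-Glo detection reagents only; potency is for inhibitors that reduce the luminescence signal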
Conditions: 5 uM ADP

AC50, inactive:
CC1CCCC(C)N1C(=O)COC(=O)Cc1c[nH]c2ccccc12 (configuration not stated) > 30 µM, O=c1cc(-c2ccco2)oc2c1ccc1ccccc12 > 30 µM, Cc1ccc(Sc2ccc(NC(=O)CCl)cc2)c(C)c1 > 30 µM, CCN=C(NC#N)SCc1c(F)cccc1Cl > 30 µM, COc1ccccc1/C=C1\S/C(=N/NC(=O)c2cccc(Br)c2)NC1=O > 30 µM, O=C(O)Cn1cc(/C=N/NC(=O)c2cc3cc(Br)ccc3o2)c2ccccc21 > 30 µM, COc1ccc(C(=O)Nc2nncs2)cc1S(=O)(=O)N1CC(c2ccccc2)CC1=O (configuration not stated) > 30 µM, COc1ccc(-n2c(C)c([N+](=O)[O-])c3ccc(O)c(CN4CCCCC4)c32)cc1 > 30 µM, O=C(CN1CCCCCC1)Nc1ccccc1Oc1ccccc1 > 30 µM, NC(=O)c1sc2nc3c(c(-c4cccnc4)c2c1N)CCC3 > 30 µM, CN(C)c1ncnc2c1ncn2C1OC(CO)C(O)C1O (configuration not stated) > 30 µM, COc1cc(C2CC(=O)Nc3n[nH]c(-c4ccccc4)c32)cc(OC)c1OC (configuration not stated) > 30 µM, O=C(NCC1CCN(Cc2ccccc2Cl)CC1)Nc1ccccc1F > 30 µM, COc1ccc2[nH]c(C(=O)O)c(NS(=O)(=O)c3ccc(OC)c(OC)c3)c2c1 > 30 µM, CCn1c(=O)[nH]c(=O)c2c(N)c(C(=O)c3cc(F)ccc3F)sc21 > 30 µM, CC1=C(C(=O)OC(C)C)C(c2cccc(F)c2)n2ncnc2N1 (configuration not stated) > 30 µM, O/N=C1/CC/C(=N\O)c2nn(-c3ccccc3)nc21 > 30 µM, CC1=C(C(=O)OC(C)C)C(c2cccnc2)n2ncnc2N1 (configuration not stated) > 30 µM, Nc1c(S(=O)(=O)c2ccccc2)nnn1-c1ccccc1 > 30 µM, Cc1cc(/C=N/O)c(C)n1-c1ccc(Br)cc1 > 30 µM, Cc1cccc(C(=O)OCC(=O)Nc2c(C)n(C)n(-c3ccccc3)c2=O)c1 > 30 µM, O=C(Nc1ccccc1)c1cc(-n2cnnc2)ccc1Cl > 30 µM, Brc1ccc(C2=Nn3c(nnc3-c3cccnc3)SC2)s1 > 30 µM, O=C(c1ccco1)N(Cc1ccc([N+](=O)[O-])cc1)c1ccc(Br)cc1 > 30 µM, CCOC(=O)c1sc(NC(=O)CSc2nnc(-c3ccc(OC)cc3)n2CCOC)nc1C > 30 µM, CCc1cc(C(=O)c2ccc(C)cc2)c(NC(=O)CCl)s1 > 30 µM, Oc1ccc(-c2nnc(-c3ccccc3)c(-c3ccccc3)n2)cc1 > 30 µM, CCC(=O)N1CCN(c2cc(NCC3CCCO3)c(F)cc2[N+](=O)[O-])CC1 (configuration not stated) > 30 µM, COc1cc(C2C(C#N)=C(N)Oc3n[nH]c(-c4cccnc4)c32)cc(Br)c1O (configuration not stated) > 30 µM, Cc1[nH]c2ccccc2c1N=Nc1cccc(C(=O)O)c1 > 30 µM, COc1ccc(/C=C/c2nc(N)nc(-c3ccccc3O)n2)cc1OC > 30 µM, N#Cc1sc2nc(-c3cccs3)cc(-c3ccccc3)c2c1N > 30 µM, Cc1ccc(S(=O)(=O)N(CC(O)CN2CCCC2)c2ccccc2)cc1 (configuration not stated) > 30 µM, COc1ccc(/C=C(/NC(=O)c2ccc([N+](=O)[O-])cc2)C(=O)NC(C)(C)C)cc1 > 30 µM, CC(=C/c1ccccc1)/C=N/NC(=O)c1nnn(-c2nonc2N)c1CN1CCC(C)CC1 > 30 µM, CCN1CCN(CC(=O)Nc2nc3ccc(OC)cc3s2)CC1 > 30 µM, CC(C)CC(=O)Nc1ccc(-c2cn3cccnc3n2)cc1 > 30 µM, COc1ccc(CNc2cc(NCCCO)c([N+](=O)[O-])c3nonc23)cc1 > 30 µM, Fc1cccc(/C=N/Nc2nccnc2Cl)c1 > 30 µM, Nc1nnc(SCC(=O)Nc2sc3c(c2C(=O)c2ccccc2)CCCC3)s1 > 30 µM, c1ccc(CNc2ncnc3sc4c(c23)CCCC4)nc1 > 30 µM, COc1ccc(CNC(=O)CN(CC2CCCO2)C(=O)CNS(=O)(=O)c2ccccc2)cc1 (configuration not stated) > 30 µM, NS(=O)(=O)c1ccc(Nc2nc(-c3ccc(F)cc3)cs2)cc1 > 30 µM, O=C1NC(=Nc2ccccc2Cl)S/C1=C\c1cccc([N+](=O)[O-])c1 > 30 µM, COc1ccc(/C=C2\Oc3cc(OCC(N)=O)ccc3C2=O)cc1OC > 30 µM, COc1ccc2c(=O)c3c(=O)n(Cc4ccco4)c(-c4ccco4)nc3oc2c1 > 30 µM, CC(=O)Nc1ncc(Cc2cccc(Cl)c2Cl)s1 > 30 µM, O=C(CCSc1nc(-c2ccco2)cc(C(F)(F)F)n1)NCc1cccs1 > 30 µM, O=C(CSc1nc2[nH]ncc2c(=O)n1-c1ccc(Cl)c(Cl)c1)NCc1ccccc1Cl > 30 µM, COc1ccc(-c2csc3ncnc(NCCCO)c23)cc1 > 30 µM, CCOC(=O)c1c(NC(=O)CN2C(=O)NC3(CCC(C)CC3)C2=O)sc(C)c1CC (configuration not stated) > 30 µM, O=C(COC(=O)Cc1ccc(F)cc1)Nc1ccc(Cl)cn1 > 30 µM, CCOC(=O)c1nnn(-c2nonc2N)c1CS(=O)(=O)c1ccccc1 > 30 µM, C=CCN1C(=O)/C(=C\c2ccco2)C(C(=O)OC)=C1C > 30 µM, CC(=O)N1CC=C2C(C#N)=C(N)C(C#N)(C#N)[C@H](c3ccoc3)[C@H]2C1 > 30 µM, CCCCc1ccc(NC(=O)N[C@@H](CC(C)C)C(=O)O)cc1 > 30 µM, CCN(CC)CCNC(=O)c1ccc(NC(=O)C2CCN(c3ncnc4sc(C)c(C)c34)CC2)cc1 > 30 µM, Cc1nn(-c2ccccc2)c(C)c1/C=C/C(=O)OCC(=O)Nc1ccc(C(N)=O)cc1 > 30 µM, COc1ccc(C2=Nn3c(nnc3-c3ccncc3)SC2)cc1 > 30 µM, N#C/C(=N\Nc1cccc(F)c1)C(=O)C1CC1 > 30 µM, Cc1nc2ccccc2n2c(-c3ccccc3)c3c(=O)n(C)c(=O)n(C)c3c12 > 30 µM, CCOC(=O)C1CCCN(c2c(C(=O)c3ccccc3)cnc3ccc(OC)cc23)C1 (configuration not stated) > 30 µM, CCOC(=O)C1CCCN(Cc2sccc2C)C1 (configuration not stated) > 30 µM, Oc1[nH]c2ccc(Br)cc2c1N=Nc1ccc(F)cc1 > 30 µM, C/C(=C(/CCO)SSCC1CCCO1)N(C=O)Cc1cnc(C)nc1N (configuration not stated) > 30 µM, CNc1nc(Cl)c(SC)c(NC2CCCCC2)n1 > 30 µM, N#CC(C#N)=Cc1c[nH]c(=O)c(C#N)c1Nc1ccccc1 > 30 µM, CCOC(=O)c1ccc(N2CSC3=C(C#N)C(c4ccc(OC)cc4OC)CC(=O)N3C2)cc1 (configuration not stated) > 30 µM, O=C(C[n+]1ccccc1)c1ccc(Cl)cc1 > 30 µM, N#Cc1c(NC(=O)c2ccc(Br)o2)n(-c2ccccc2)c2nc3ccccc3nc12 > 30 µM, OCc1cn(-c2ccccc2)nn1 > 30 µM, Nc1nonc1-c1nc2ccccc2n1CCC(=O)O > 30 µM, COc1cc(/C=N/NC(=O)c2ccoc2C)ccc1O > 30 µM, CCc1ccc(C2CC(c3cccc(Cl)c3)n3nc(N)nc3N2)cc1 (configuration not stated) > 30 µM, O=C1C2C3c4ccccc4C(c4ccccc43)C2C(=O)N1Cc1cccnc1 (configuration not stated) > 30 µM, COc1cccc2c1C(=O)O/C2=C/c1ccc2c(c1)OCO2 > 30 µM, CCOC(=O)c1[nH]c(C)c(C(=O)OCCOc2cccc(C)c2)c1C > 30 µM, Cc1ccnc(NC(=O)CCC(=O)N(CC(=O)NCc2ccccc2)Cc2ccco2)c1 > 30 µM, O=C(c1coc2ccc(O)c(CN3CCOCC3)c12)C1CC1 > 30 µM, O=C(O)C1CC(O)CN1C(=S)Nc1ccccc1 (configuration not stated) > 30 µM, S=C(NCc1ccccc1)Nc1cccc2cnccc12 > 30 µM, O=C(COC(=O)c1ccco1)Nc1ccc(Cl)cn1 > 30 µM, CCCCc1ccc(NC(=O)N[C@H](C(=O)O)C(C)CC)cc1 (some centres not stated) > 30 µM, COc1cc(C(=O)NNC(=O)C2CSC3(C)CCC(=O)N23)cc(OC)c1OC (configuration not stated) > 30 µM, COc1ccccc1/C=N/NC(=O)c1ccccc1Cl > 30 µM, Nc1nonc1-n1nnc(C(=O)N/N=C/c2ccncc2)c1CSc1ccc(Cl)cc1 > 30 µM, CCOC(=O)c1cnc2cc(F)c(F)cc2c1N1CCN(C)CC1 > 30 µM, CCOC(=O)/C(C#N)=C1/SC(CCO)C(=O)N1c1ccccc1 (configuration not stated) > 30 µM, COc1cccc(C(C[N+](=O)[O-])c2c(C)[nH]n(-c3ccccc3)c2=O)c1 (configuration not stated) > 30 µM, CSc1nc2sc3c(c2c(=O)[nH]1)CCC(C)C3 (configuration not stated) > 30 µM, CC1=C(C(=O)OC2CCCCC2)C(c2cccs2)n2c(nc3ccccc32)N1 (configuration not stated) > 30 µM, COc1cc(/C=N/NC(=O)c2cccs2)ccc1O > 30 µM
